PubChem BioAssay AID686943 | Drosophila RNAi Screening Center | 2013
Purpose: 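Fly genes whose loss alters ERK activation after insulin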 (primary screen). Cells: Drosophila S2R+ haemocyte-like cells expressing YFP-tagged ERK (Rolled). Reagents: long dsRNA against Drosophila genes. Conditions: insulin stimulation versus unstimulated cells; dose and duration not given. Detection: 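Per-plate z-scores of phospho-ERK immunostaining normalised to YFP-tagged ERK, measured with and without insulin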. Scale: replicate 1, z-score of dpERK with insulin and replicate 2, z-score of dpERK with insulin: higher = more active ERK per ERK-YFP after insulin; replicate 1, z-score of dpERK under basal conditions: higher = more basal active ERK per ERK-YFP; replicate 1, z-score of ERK-YFP with insulin: higher = more YFP-tagged ERK signal.
The deposit covers about 23,000 reagents; this is a random part of those that have a named target and a result. 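Extra replicates exist only for a retested subset of genes; insulin dose and duration not given; both raised and lowered dpERK matter.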 Not stated in the record: the amount of reagent, the time to read-out.

no.	Target gene	dsRNA	replicate 1, z-score of dpERK with insulin	replicate 2, z-score of dpERK with insulin	replicate 1, z-score of dpERK under basal conditions	replicate 1, z-score of ERK-YFP with insulin
1	CG5402	DRSC15792	0.58	-1.5	0.35	-0.2
2	LBR	DRSC04298	0.64	0.14	-0.99	-0.08
3	homer	DRSC03547	-0.41	-0.88	-0.44	-1
4	MCU	DRSC10339	0.24	-0.12		-0.15
5	RpL34a	DRSC15964	-0.15	0.2	0.29	-0.66
6	CG15570	DRSC18058	-0.02	-0.46	-0.97	0.08
7	Mst84Dc	DRSC12599	-0.42	0.14	0.01	0.41
8	CG12725	DRSC19501	0.21	1.12	-0.6	-2.66
9	CG13227	DRSC06347	0.84	0.85	1.14	-0.18
10	pll	DRSC17026	0.53	0.31	0.9	0.74
11	Ipo9	DRSC16813	-0.25	0.36	0.75	0.39
12	Amnionless	DRSC00317	-0.5	-0.79	0.1	0.39
13	CG12883	DRSC14570	-0.39	-0.15	0.09	-0.1
14	CG30269	DRSC04158	0.22	0.49	-0.77	0.53
15	Obp19c	DRSC20528	-0.08	-0.4	-1.14	-0.4
16	Caf1-180	DRSC17807	-0.88	-0.97	-0.74	0.74
17	Tig	DRSC03456	1.4	0.4	-0.94	-2.1
18	IscU	DRSC16572	-1.05	-0.1	-0.85	-0.39
19	SH3PX1	DRSC11139	-0.8	-1.63	0.94	0.55
20	CG13679	DRSC10037	0.92	-0.29	0.46	-0.07
21	CG13679	DRSC22749	-0.14	0.26	0.16	1.4
22	CG4839	DRSC02783	-0.06	-0.62	-1.49	-0.62
23	CG4839	DRSC02784	0.77	0.28	-0.01	0.14

Entries listed so far whose target name begins with I or i:
Target gene	dsRNA	replicate 1, z-score of dpERK with insulin	replicate 2, z-score of dpERK with insulin	replicate 1, z-score of dpERK under basal conditions	replicate 1, z-score of ERK-YFP with insulin
Ipo9	DRSC16813	-0.25	0.36	0.75	0.39
IscU	DRSC16572	-1.05	-0.1	-0.85	-0.39
